Experimental data: US20060034889A1, “Biodegradable diblock copolymers having reverse thermal gelation properties and methods of use thereof” (MacroMed, Inc., priority 2004, published 2006)
Converted amounts (≈) assume the structure as drawn.

Experiment: physchem
Conditions: water

- solubility: ~4 µg/mL (≈ 4.68 µM)
Compound: CC(=O)O[C@H]1C(=O)[C@@]2(C)[C@H]([C@H](OC(=O)c3ccccc3)[C@]3(O)C[C@H](OC(=O)[C@H](O)[C@@H](NC(=O)c4ccccc4)c4ccccc4)C(C)=C1C3(C)C)[C@]1(OC(C)=O)CO[C@@H]1C[C@@H]2O [paclitaxel]
